Assay results published in the supplement of paper PMC8728848.
Some of the results follow.

Columns and labels:
Assay in all cases: glycan array binding signal (z-score within array); higher = stronger binding
Settings in all cases: glycan notation: IUPAC condensed, linker removed
[1] = biological target: GalNAc3S(b1-4)[Fuc(a1-3)]GlcNAc
Method in brief: (§1)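 The binding signal is a Z-score computed within each array. Data were drawn from 3228 arrays in the Consortium for Functional Glycomics database, restricted to those with a known protein sequence. Scores were averaged over arrays of the same protein sequence at different concentrations or buffers, and over linkers, and negative values can be taken as non-binding.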

[2] = biological target: GalNAc4S6S(b1-4)GlcNAc
Method in brief: as §1

[3] = biological target: GalNAc6S(b1-4)GlcNAc
Method in brief: as §1

[4] = biological target: Glc(a1-4)Glc
Method in brief: as §1

[5] = biological target: Glc(a1-4)Glc(a1-4)Glc(a1-4)Glc
Method in brief: as §1

[6] = biological target: Glc(a1-6)Glc(a1-6)Glc
Method in brief: as §1

[7] = biological target: Glc(a1-6)Glc(a1-6)Glc(a1-6)Glc
Method in brief: as §1

[8] = biological target: Glc(b1-4)Glc
Method in brief: as §1

[9] = biological target: Glc(b1-6)Glc
Method in brief: as §1

[10] = biological target: GlcA(b1-3)Gal
Method in brief: as §1

[11] = biological target: GlcA(b1-3)GlcNAc
Method in brief: as §1

[12] = biological target: GlcA(b1-6)Gal
Method in brief: as §1

[13] = biological target: GlcA3S(b1-3)Gal(b1-4)GlcNAc(b1-2)Man
Method in brief: as §1

[14] = biological target: GlcA3S(b1-3)Gal(b1-4)GlcNAc(b1-3)Gal(b1-4)Glc
Method in brief: as §1

[15] = biological target: GlcNAc(a1-3)Gal(b1-4)GlcNAc
Method in brief: as §1

[16] = biological target: GlcNAc(a1-4)Gal(b1-3)GlcNAc
Method in brief: as §1

[17] = biological target: GlcNAc(a1-4)Gal(b1-4)GalNAc
Method in brief: as §1

[18] = biological target: GlcNAc(a1-4)Gal(b1-4)GlcNAc
Method in brief: as §1

[19] = biological target: GlcNAc(a1-4)Gal(b1-4)GlcNAc(b1-3)Gal(b1-4)Glc
Method in brief: as §1

[20] = biological target: GlcNAc(a1-4)Gal(b1-4)GlcNAc(b1-3)Gal(b1-4)GlcNAc
Method in brief: as §1

[21] = biological target: GlcNAc(a1-4)Gal(b1-4)GlcNAc(b1-3)Gal(b1-4)GlcNAc(b1-3)Gal(b1-4)GlcNAc
Method in brief: as §1

[22] = biological target: GlcNAc(a1-4)Gal(b1-4)GlcNAc(b1-3)Gal(b1-4)[Fuc(a1-3)]GlcNAc(b1-3)Gal(b1-4)[Fuc(a1-3)]GlcNAc
Method in brief: as §1

[23] = biological target: GlcNAc(a1-6)Gal(b1-4)GlcNAc
Method in brief: as §1

[24] = biological target: GlcNAc(b1-2)Gal(b1-3)GalNAc
Method in brief: as §1

[25] = biological target: GlcNAc(b1-2)Man(a1-3)[GlcNAc(b1-2)Man(a1-6)]Man(b1-4)GlcNAc(b1-4)GlcNAc
Method in brief: as §1

[26] = biological target: GlcNAc(b1-2)Man(a1-3)[GlcNAc(b1-2)Man(a1-6)]Man(b1-4)GlcNAc(b1-4)[Fuc(a1-6)]GlcNAc
Method in brief: as §1

[27] = biological target: GlcNAc(b1-2)Man(a1-3)[GlcNAc(b1-4)][GlcNAc(b1-2)Man(a1-6)]Man(b1-4)GlcNAc(b1-4)GlcNAc
Method in brief: as §1

[28] = biological target: GlcNAc(b1-2)Man(a1-3)[GlcNAc(b1-4)][GlcNAc(b1-2)Man(a1-6)]Man(b1-4)GlcNAc(b1-4)[Fuc(a1-6)]GlcNAc
Method in brief: as §1

[29] = biological target: GlcNAc(b1-2)[GlcNAc(b1-4)]Man(a1-3)[GlcNAc(b1-2)Man(a1-6)]Man(b1-4)GlcNAc(b1-4)GlcNAc
Method in brief: as §1

[30] = biological target: GlcNAc(b1-2)[GlcNAc(b1-4)]Man(a1-3)[GlcNAc(b1-4)][GlcNAc(b1-2)Man(a1-6)]Man(b1-4)GlcNAc(b1-4)GlcNAc
Method in brief: as §1

[31] = biological target: GlcNAc(b1-2)[GlcNAc(b1-4)]Man(a1-3)[GlcNAc(b1-4)][GlcNAc(b1-2)[GlcNAc(b1-6)]Man(a1-6)]Man(b1-4)GlcNAc(b1-4)GlcNAc
Method in brief: as §1

[32] = biological target: GlcNAc(b1-2)[GlcNAc(b1-4)]Man(a1-3)[GlcNAc(b1-4)][GlcNAc(b1-2)[GlcNAc(b1-6)]Man(a1-6)]Man(b1-4)GlcNAc(b1-4)[Fuc(a1-6)]GlcNAc
Method in brief: as §1

[33] = biological target: GlcNAc(b1-2)[GlcNAc(b1-6)]Man(a1-6)[GlcNAc(b1-2)Man(a1-3)]Man(b1-4)GlcNAc(b1-4)GlcNAc
Method in brief: as §1

[34] = biological target: GlcNAc(b1-2)[GlcNAc(b1-6)]Man(a1-6)[GlcNAc(b1-2)Man(a1-3)]Man(b1-4)GlcNAc(b1-4)[Fuc(a1-6)]GlcNAc
Method in brief: as §1

[35] = biological target: GlcNAc(b1-2)[GlcNAc(b1-6)]Man(a1-6)[GlcNAc(b1-4)][GlcNAc(b1-2)Man(a1-3)]Man(b1-4)GlcNAc(b1-4)GlcNAc
Method in brief: as §1

[36] = biological target: GlcNAc(b1-3)Fuc
Method in brief: as §1

[37] = biological target: GlcNAc(b1-3)Gal
Method in brief: as §1

[38] = biological target: GlcNAc(b1-3)Gal(b1-3)GalNAc
Method in brief: as §1

B1: PX9961W-pdi-543-27-543 (Parabacteroides distasonis) (protein)
chain: EGNATTTSYFLNDQQAIDAIDGLYERFHQEGCYGRELFWEQGAACDIVWGRTRGYNSLATLAYTGDESPLRDVFSRMYSTMSRANWIIQELVKKEKGTTLTAVEKRSLGEAYFSRGWAHYLIAYRYGTDKQGVPFVRYEDFPDDYDNSIPPQQATVMDNYKLIIEDMDKAIAYLPIFESYDADNRGRAHQAAAVAFKAKTYAYWATWDATQWNNVIEMVNQLENNYNRDLAPTFAELFSSDLKDYWNAEYLWTIPSIGGALPGGTEFPGIILENKGWGKYNGWGQMKPSYDIYEEMAKDGKGNDRLVRSILEYNQEFPFFGETRKFWSTSDLEAGFMINKYMDAFKYSDPVGEGAVSANGDWPTVRVNFPIIRFAEMLLFRAEAYLMTGQADKATADINRIRLRSNLTPLTGTATMKDLYHERRCELAFEFTDHLFDLKRWNRSSNADIKTLADKELNAHPRIRRYEDRANPESAFTIIGYEDYTNKNAYQAHMMVFPYPSEEITKSNGQLKQNEGY
[1]
  glycan array binding signal (z-score): 1.18
[2]
  glycan array binding signal (z-score): -0.291
[3]
  glycan array binding signal (z-score): 1.01
[4]
  glycan array binding signal (z-score): 0.007
[5]
  glycan array binding signal (z-score): -0.875
[6]
  glycan array binding signal (z-score): -0.416
[7]
  glycan array binding signal (z-score): -0.169
[8]
  glycan array binding signal (z-score): -0.067
[9]
  glycan array binding signal (z-score): 0.658
[10]
  glycan array binding signal (z-score): 0.097
[11]
  glycan array binding signal (z-score): 0.817
[12]
  glycan array binding signal (z-score): -0.459
[13]
  glycan array binding signal (z-score): 0.015
[14]
  glycan array binding signal (z-score): -0.46
[15]
  glycan array binding signal (z-score): 0.048
[16]
  glycan array binding signal (z-score): 0.356
[17]
  glycan array binding signal (z-score): 0.061
[18]
  glycan array binding signal (z-score): -0.83
[19]
  glycan array binding signal (z-score): -0.346
[20]
  glycan array binding signal (z-score): 0.041
[21]
  glycan array binding signal (z-score): 0.279
[22]
  glycan array binding signal (z-score): -0.11
[23]
  glycan array binding signal (z-score): 0.398
[24]
  glycan array binding signal (z-score): -0.369
[25]
  glycan array binding signal (z-score): -0.878
[26]
  glycan array binding signal (z-score): 0.087
[27]
  glycan array binding signal (z-score): -0.603
[28]
  glycan array binding signal (z-score): -0.234
[29]
  glycan array binding signal (z-score): -0.57
[30]
  glycan array binding signal (z-score): -0.099
[31]
  glycan array binding signal (z-score): -0.623
[32]
  glycan array binding signal (z-score): -1.03
[33]
  glycan array binding signal (z-score): -0.815
[34]
  glycan array binding signal (z-score): -0.434
[35]
  glycan array binding signal (z-score): -1.41
[36]
  glycan array binding signal (z-score): 1.1
[37]
  glycan array binding signal (z-score): -0.503
[38]
  glycan array binding signal (z-score): 0.459
